Measured values: patent publication US20070059829A1
These are yes or no findings as the source states them, for the method shown. Binding seen in cells or lysates may run through a third protein. Some binding calls cover weakened binding; strength is not graded here. Sequences can lack the tags named with a protein.

Chains of the proteins cited; added tags and fusions are not shown. Residues count along the entry.
UniProt O75581, residues 20-1370: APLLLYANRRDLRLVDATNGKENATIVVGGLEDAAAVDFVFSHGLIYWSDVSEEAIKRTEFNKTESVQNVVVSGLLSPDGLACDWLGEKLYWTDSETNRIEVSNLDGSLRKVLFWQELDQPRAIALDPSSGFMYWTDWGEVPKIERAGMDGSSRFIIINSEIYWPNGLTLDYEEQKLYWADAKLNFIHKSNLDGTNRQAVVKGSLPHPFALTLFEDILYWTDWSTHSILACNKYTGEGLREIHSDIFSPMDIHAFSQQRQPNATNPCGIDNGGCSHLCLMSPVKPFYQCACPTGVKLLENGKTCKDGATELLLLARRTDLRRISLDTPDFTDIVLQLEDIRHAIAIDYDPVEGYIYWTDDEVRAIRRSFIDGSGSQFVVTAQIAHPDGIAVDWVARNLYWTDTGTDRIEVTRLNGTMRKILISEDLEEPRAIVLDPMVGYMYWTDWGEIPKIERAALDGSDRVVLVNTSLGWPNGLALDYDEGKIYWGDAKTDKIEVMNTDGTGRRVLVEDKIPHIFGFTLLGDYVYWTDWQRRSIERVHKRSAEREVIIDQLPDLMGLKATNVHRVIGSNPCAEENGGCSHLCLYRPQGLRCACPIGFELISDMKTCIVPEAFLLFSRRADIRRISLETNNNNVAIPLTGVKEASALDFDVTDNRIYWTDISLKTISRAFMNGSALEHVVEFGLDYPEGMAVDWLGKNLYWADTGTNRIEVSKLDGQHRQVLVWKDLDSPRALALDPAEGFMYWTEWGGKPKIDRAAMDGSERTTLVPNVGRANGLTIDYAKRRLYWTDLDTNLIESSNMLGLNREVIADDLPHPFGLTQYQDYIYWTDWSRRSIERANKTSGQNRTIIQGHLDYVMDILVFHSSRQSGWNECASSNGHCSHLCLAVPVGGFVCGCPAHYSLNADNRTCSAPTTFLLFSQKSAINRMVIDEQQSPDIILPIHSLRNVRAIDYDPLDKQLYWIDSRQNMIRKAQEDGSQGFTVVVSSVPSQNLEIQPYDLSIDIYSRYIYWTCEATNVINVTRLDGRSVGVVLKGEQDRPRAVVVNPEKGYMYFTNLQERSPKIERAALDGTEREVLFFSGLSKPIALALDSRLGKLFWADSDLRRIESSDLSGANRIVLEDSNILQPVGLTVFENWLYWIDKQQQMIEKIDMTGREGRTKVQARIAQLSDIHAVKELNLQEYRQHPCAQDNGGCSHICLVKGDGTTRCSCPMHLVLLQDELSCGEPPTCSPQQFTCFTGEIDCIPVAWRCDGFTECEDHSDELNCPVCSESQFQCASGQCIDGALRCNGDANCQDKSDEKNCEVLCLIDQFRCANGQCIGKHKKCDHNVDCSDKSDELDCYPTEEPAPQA

T1: human immunoglobin Fc fusion form of the cysteine-rich domain (CRD) of mouse Fzd8 (mouse; human) (UniProt Q61091)
T1 sequence (looked up): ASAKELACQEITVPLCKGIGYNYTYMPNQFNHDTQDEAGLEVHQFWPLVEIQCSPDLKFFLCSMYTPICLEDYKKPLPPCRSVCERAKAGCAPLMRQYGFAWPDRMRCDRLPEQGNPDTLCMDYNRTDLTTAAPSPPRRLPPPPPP


Legend:
[1] = biological target: human immunoglobin Fc fusion form of the extracellular domain of human LRP6 (human) (UniProt O75581); experiment: co-transfection in 293T cells, co-immunoprecipitation, western blot
[2] = biological target: T1, human immunoglobin Fc fusion form of the cysteine-rich domain (CRD) of mouse Fzd8 (mouse; human); experiment: as above
[3] = biological target: human immunoglobin Fc fusion form of the extracellular domain of human LRP6 (human) (UniProt O75581); experiment: co-immunoprecipitation from co-transfected cells (FIG. 6A legend)
[4] = biological target: T1, human immunoglobin Fc fusion form of the cysteine-rich domain (CRD) of mouse Fzd8 (mouse; human); experiment: as above
[5] = biological target: human immunoglobin Fc fusion form of the extracellular domain of human LRP6 (human) (UniProt O75581); experiment: cell-free pull-down on protein A-sepharose beads, western blot
[6] = biological target: T1, human immunoglobin Fc fusion form of the cysteine-rich domain (CRD) of mouse Fzd8 (mouse; human); experiment: as above
[7] = biological target: human immunoglobin Fc fusion form of the extracellular domain of human LRP6 (human) (UniProt O75581); experiment: cell-free pull-down (FIG. 6B legend)
[8] = biological target: T1, human immunoglobin Fc fusion form of the cysteine-rich domain (CRD) of mouse Fzd8 (mouse; human); experiment: cell-free pull-down (FIG. 6B legend)

Row | binding [5] | binding [6] | binding [7] | binding [8] | Binder | binding [1] | binding [2] | binding [3] | binding [4]
1 | – | – | – | – | mouse R-spondin3 tagged with the HA epitope (ligand, not shown: small tags and cut ends) QNASRGRRQRRMHPNVSQGCQGGCATCSDYNGCLSCKPRLFFVLERIGMKQIGVCLSSCPSGYYGTRYPDINKCTKCKVDCDTCFNQNFCTKCKSGFYLHLGKCLDSCPEGLEANNHTMECVSIVHCEASEWSPWSPCMKKGKTCGFKRGTETRVRDILQHPSAKGNLCPPTSETRTCIVQRKKCSKGERGKKGRERKRKKLNKEERKETSSSSDSKGLESSIETPDQQENKERQQQQKRRARDKQQKSVSVSTVH | binds | binds | binds | binds
2 | binds | binds | binds | binds | Histidine-tagged R-spondin3 protein (ligand, not shown: small tags and cut ends) QNASRGRRQRRMHPNVSQGCQGGCATCSDYNGCLSCKPRLFFVLERIGMKQIGVCLSSCPSGYYGTRYPDINKCTKCKVDCDTCFNQNFCTKCKSGFYLHLGKCLDSCPEGLEANNHTMECVSIVHCEASEWSPWSPCMKKGKTCGFKRGTETRVRDILQHPSAKGNLCPPTSETRTCIVQRKKCSKGERGKKGRERKRKKLNKEERKETSSSSDSKGLESSIETPDQQENKERQQQQKRRARDKQQKSVSVSTVH | – | – | – | –
